We go through 2 molecules from article PMC13378934.

The target in assay [1] is T1, Flag-CARD19 (caspase activation and recruitment domain 19) (UniProt Q9D1I2).
T1 sequence: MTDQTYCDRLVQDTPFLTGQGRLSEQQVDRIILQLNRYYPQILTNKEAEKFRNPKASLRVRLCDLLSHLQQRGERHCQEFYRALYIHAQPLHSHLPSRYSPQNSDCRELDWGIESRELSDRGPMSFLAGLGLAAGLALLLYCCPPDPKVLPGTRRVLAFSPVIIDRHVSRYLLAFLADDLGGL
Put plainly: co-IP; 500 ug protein of BV2 cells incubated with 1 ug Flag antibody (or rabbit IgG) at 4°C overnight, protein A/G agarose beads 2 h at 4°C, five washes with PBS, western blotting. (In general: Immunoblotting shows a protein as a band on a membrane.)

The target of assay [2] is T2, mitochondrial inner membrane protein 19 (MIC19) (mouse (endogenous in BV2)) (UniProt Q9CRB9).
T2 sequence: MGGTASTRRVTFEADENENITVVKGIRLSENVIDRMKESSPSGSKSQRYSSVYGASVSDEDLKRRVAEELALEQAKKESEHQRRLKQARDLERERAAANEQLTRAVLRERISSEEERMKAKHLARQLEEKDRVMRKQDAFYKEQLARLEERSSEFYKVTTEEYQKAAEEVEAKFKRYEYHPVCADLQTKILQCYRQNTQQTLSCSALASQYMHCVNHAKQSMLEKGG
Put plainly: co-IP; 500 ug protein of BV2 cells incubated with 1 ug MIC19 antibody (or rabbit IgG) at 4°C overnight, protein A/G agarose beads 2 h at 4°C, five washes with PBS, western blotting; cells with or without OGD/R, with Vector or Flag-CARD19, with LV-NC or LV-shCARD19.

Results are given in words; binding and its absence hold for the method and conditions named. In cells and extracts the contact can be indirect. Some binding calls cover weakened binding; strength is not graded here. For part of these data: Tags and fused reporters may be left off the sequences shown.

B1: sorting and assembly machinery component 50 (SAMM50) (protein, UniProt Q8BGH2 1-469)
chain: MGTVHARSLEPLPSSGTDFGALGEEAEFVEVEPEAKQEILENKDVVVQHVHFDGLGRTKDDIIICEIGEVFKAKNLIEVMRRSHEAREKLLRLGIFRQVDVLIDTCHGEDALPNGLDVTFEVTELRRLTGSYNTMVGNNEGSMVLGLKLPNLLGRAEKVTFQFSYGTKETSYGLSFFKPQPGNFERNFSVNLYKVTGQFPWSSLRETDRGVSAEYSFPLWKTSHTVKWEGVWRELGCLSRTASFAVRKESGHSLKSSLSHAMVIDSRNSSILPRRGALFKVNQELAGYTGGDVSFIKEDFELQLNKPLALDSVFSTSLWGGMLVPIGDKPSSIADRFYLGGPTSVRGFSMHSIGPQSEGDYLGGEAYWAGGLHLYTPLPFRPGQGGFGELFRTHFFLNAGNLCNLNYGEGPKAHIRKLAECIRWSYGAGVVLRLGNIARLELNYCIPMGVQGGDRICDGVQFGAGIRFL
On to B1, for which the binding entry in assay [1] and in assay [2] was “binds” each time.

B2: mitochondrial inner membrane protein 19 (MIC19) (protein, UniProt Q9CRB9 1-227)
chain: MGGTASTRRVTFEADENENITVVKGIRLSENVIDRMKESSPSGSKSQRYSSVYGASVSDEDLKRRVAEELALEQAKKESEHQRRLKQARDLERERAAANEQLTRAVLRERISSEEERMKAKHLARQLEEKDRVMRKQDAFYKEQLARLEERSSEFYKVTTEEYQKAAEEVEAKFKRYEYHPVCADLQTKILQCYRQNTQQTLSCSALASQYMHCVNHAKQSMLEKGG
On to B2, for which the binding result in assay [1] was “binds”.
